We go through two molecules from PMC10238197, “Deafness‐Associated ADGRV1 Mutation Impairs USH2A Stability through Improper Phosphorylation of WHRN and WDSUB1 Recruitment” (Advanced Science, 2023).

These are yes or no findings as the source states them, for the method shown. For some of these results: Binding seen in cells or lysates may run through a third protein. Some results given as binding are weak or reduced against the parent protein; the word gives no strength. For some of these results: Sequences can lack the tags named with a protein.

Test [1] has as its target Flag-ADGRV1a Y6236fsX1 mutant (mouse) (UniProt Q8VHN7). Description: co-IP; cotransfected HEK293 cells, starved 12 h, lysed in 50 mM Tris-HCl pH 7.4, 150 mM NaCl, 1% Triton, 1% NP-40, 2 mM EDTA; anti-Flag M2 or anti-Myc antibody-conjugated agarose, 4 °C overnight; blots against the tags.
The target of test [2] is Flag-ADGRV1a (adhesion G protein-coupled receptor V subfamily member 1, isoform a, aa 4333-6298) (mouse) (UniProt Q8VHN7). The description is as above.
For test [3], the target named is T1, ADGRV1-CTF (C-terminal fragment, aa 5884-6298) (mouse) (UniProt Q8VHN7).
T1 sequence: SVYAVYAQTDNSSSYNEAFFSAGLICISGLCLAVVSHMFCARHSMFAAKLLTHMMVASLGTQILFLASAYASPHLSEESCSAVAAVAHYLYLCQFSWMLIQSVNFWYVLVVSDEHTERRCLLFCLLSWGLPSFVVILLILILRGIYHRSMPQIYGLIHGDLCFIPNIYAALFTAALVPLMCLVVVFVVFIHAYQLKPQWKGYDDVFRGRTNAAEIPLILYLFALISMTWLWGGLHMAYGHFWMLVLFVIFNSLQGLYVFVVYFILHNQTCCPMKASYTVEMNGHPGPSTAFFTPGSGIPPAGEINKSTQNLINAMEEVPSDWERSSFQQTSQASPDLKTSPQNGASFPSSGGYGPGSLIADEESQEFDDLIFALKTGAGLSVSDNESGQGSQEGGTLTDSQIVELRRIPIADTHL
The description is as above.

Test [4] concerns the target T2, WHRN-PDZ1 domain, purified (mouse) (UniProt Q80VW5).
T2 sequence: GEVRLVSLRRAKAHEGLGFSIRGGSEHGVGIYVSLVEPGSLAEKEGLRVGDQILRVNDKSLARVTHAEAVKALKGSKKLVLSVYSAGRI
Description: ITC; ITC200; purified PDZ protein 50 uM, peptide 1 mM; 20 mM Tris, 200 mM NaCl, 2 mM EDTA, pH 7.4; both purified.

B1: Myc-WHRN (whirlin) (protein, UniProt Q80VW5 1-918)
chain: MNAQLDGLSVSSSSTGSLGSAAAAAGGGGGAGLRLLSANVRQLHQALTALLSEPEREQFTHCLNAYHARRNVFDLVRTLRVLLDSPVKRRLLPMLRLVIPRSDQLLFDQYTAEGLYLPATTPYRQPAWAAPDGAGPGEVRLVSLRRAKAHEGLGFSIRGGSEHGVGIYVSLVEPGSLAEKEGLRVGDQILRVNDKSLARVTHAEAVKALKGSKKLVLSVYSAGRIPGGYVTNHIYTWVDPQGRSTSPPSSLPQPHGSTLRQREDDRRSTLHLLQSGDEKKVNLVLGDGRSLGLTIRGGAEYGLGIYITGVDPGSEAESSGLKVGDQILEVNGRSFLNILHDEAVKLLKSSRHLILTVKDVGRLPHARTTVDQTKWIASSRIGESVANSAGFPGDHTEEGTSKPGFYKGPAGSQVTLSSLGNQTRALLDDQARHLLTEQERATMMYYLAQYRGGTISVEAMVMALFELLNTHAKFSLLSEVRSIISPQDLDRFDHLVLRREIESMKARQPPGPGVGDTYSMVSYSDTGSSTGSHGTSTTVSSARERLLWLIDLMENTLDLEGTGETTQGSTNALPDVSVDDVKSPSEDLPGIKPPPPPPPLAQGHDRLLGQPRKPGREDPAPLSSAAHSGIVFSAPRNRSPPPGTAPTPGPSSAQDSPSSPIYASISHANPSSRKPLDTHLALVNQHPIGPFPRVQSPPHLKSPPAETPGAGACLPPPSPSEHPDAVGANQHFVLVEVHRPDSEPDVNEVRALPQTRTASTLSQLSDSGQTLSEDSGVDAGETEASTSGRGRQTASAKNKNGKEQPRTERTAEGANKPPGLLEPTSTLVRVRKSAATLGIAIEGGANTRQPLPRIVTIQRGGSAHNCGQLKVGHVILEVNGQTLRGKEHKEAARIIAEAFKTKERDYIDFLVTEFNVML
Turning to B1, the binding entry in test [1] is on record as “no binding”; in test [2] it was “binds”; in test [3], “binds”.
As to RRIPIADTHL (peptide, UniProt Q8VHN7 6289-6298) [ADGRV1p, 10-residue C-terminal tail peptide of ADGRV1 harboring the PDZ-binding motif], the binding result in test [4] is recorded as “no binding (tested: peptide 1 mM titrated with protein 50 uM)”.
